Drawing on patent publication US20170088618A1, this text covers binding for 1 molecule.

By UniProt entry, the sequences of proteins in these tests, tags left out. Where a name states a change or a piece, a line headed by the entry shows the natural chain unless it says otherwise.
UniProt Q15116: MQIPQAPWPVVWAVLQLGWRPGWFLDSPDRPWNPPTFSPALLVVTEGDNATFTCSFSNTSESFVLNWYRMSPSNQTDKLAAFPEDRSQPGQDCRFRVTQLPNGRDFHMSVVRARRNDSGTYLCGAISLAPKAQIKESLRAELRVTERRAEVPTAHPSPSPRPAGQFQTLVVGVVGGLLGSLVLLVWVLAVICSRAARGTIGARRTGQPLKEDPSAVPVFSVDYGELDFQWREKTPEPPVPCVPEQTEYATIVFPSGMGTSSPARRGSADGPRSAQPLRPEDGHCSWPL

The target in test [1] is human PD-1 extracellular domain (crystal structure) (human) (UniProt Q15116). In words: crystal structure, 1.8 Å.
For test [2] the target is unchanged. In words: crystal structure (figure legend).

Results are given in words; binding and its absence hold for the method and conditions named. Some binding calls cover weakened binding; strength is not graded here.

B1: PD1AB-6 Fab (Fab, V domains shown)
VH: EVQLVQSGAEVKKPGATVKISCKASGFNIKDTYMHWVQQAPGKGLEWMGRIDPANGDRKYDPKFQGRVTITADTSTDTAYMELSSLRSEDTAVYYCARSGPVYYYGSSYVMDYWGQGTTVTVSS
VL: DIVMTQSPDSLAVSLGERATINCKSGQSVLYSSNQKNFLAWYQQKPGQPPKLLIYWASTRESGVPDRFSGSGSGTDFTLTISSLQAEDVAVYYCHQYLYSWTFGQGTKLEIKR
B1: the binding result in test [1] and in test [2] was “binds” in each case.
